Data: PubChem BioAssay AID624297 (National Center for Advancing Translational Sciences (NCATS), 2012)
The whole screen tested about 340,000 compounds, of which about 6,200 (1.8%) were called active. This list was built around the results that the source calls inconclusive (neither active nor inactive); the mix of calls is not that of the screen. Calls follow the shape of the dose curve; as a rule, active = well fitted activation curve with a large enough effect; inconclusive = small, poorly fitted or top-dose-only effect; inactive = no such curve, though single readings can be large or run the other way. A potency beside an inconclusive call is a rough fit, not a confirmed value.

assay: A quantitative high throughput screen for small molecules that induce DNA re-replication in SW480 colon adenocarcinoma cells.; also: nearly all actives have a fitted effect of over 55% in size; as to re-replication activation: % of control where 0% means no effect; details: Hoechst DNA content imaging, 48 h; re-replication activation: at 46.1 µM (top of the series) unless noted
Method in brief: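 Per well, 250 cells were exposed to pinned compound for 48 hr. Nuclear DNA was visualised with Hoechst (40 min, 37 C) and total object intensity recorded by fluorescence scanning.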
Potency is read from the fitted curve at half-maximal effect.

SMILES | Potency | re-replication activation
CCNS(=O)(=O)c1ccc(NC(=O)c2ccc(Cn3cc(Br)cn3)o2)cc1 | inconclusive: 32.6 µM [activator, partial curve, poor fit] | 
N=c1n(CCN2CCCC2)c2ccccc2n1CC(O)c1ccc(Cl)c(Cl)c1 (configuration not stated) | inconclusive: 1.64 µM [activator, partial curve] | 
Cc1nn(CC(=O)N2CCN(C)CC2)c(=O)c2c1sc1ccccc12 | inconclusive: 32.6 µM [activator, single point] | 
C=C(C)c1nc(Oc2ccccc2)nc(Oc2ccccc2)n1 | inconclusive: 23.1 µM [activator, single point] | 
Cn1c(SCc2ccccc2)nnc1-c1ccncc1 | inconclusive: 16.4 µM [activator, single point] | 
Cc1ccc(NC(=S)/N=C(\N)Nc2nc(C)c3cc(C)c(C)cc3n2)cc1C | inconclusive: 13 µM [activator, partial curve, poor fit] | 
COc1cc(/C=C/CN2CCN(Cc3ccc(C)o3)C(CCO)C2)ccc1O (configuration not stated) |  | inactive: -5.12%
CC1(C)Cc2c(c(N3CCOCC3)nc3sc4c(NN)ncnc4c23)CS1 | inconclusive: 18.4 µM [activator, single point] | 
COc1ccccc1NS(=O)(=O)c1cccc(C(=O)NCc2ccco2)c1 |  | inactive: -3.21%
CC(Oc1ccc(Cl)cc1Cl)C(=O)Nc1ccc(O)cc1 (configuration not stated) |  | inactive: -2.14%
CCOc1cc(C)c(S(=O)(=O)NC2CC(C)(C)NC(C)(C)C2)cc1C |  | inactive: -7.81%
CC(C)c1ccc(C(O)P(=O)(OC2CCCCC2)OC2CCCCC2)cc1 (configuration not stated) | inconclusive: 10.3 µM [activator, partial curve, poor fit] | 
CCC(=O)N(CC)Cc1cc(=O)[nH]c2ccccc12 | inconclusive: 20.6 µM [activator, partial curve, poor fit] | 
O=C(O)c1cccc(-c2noc(-c3cccc(Cl)c3)n2)c1 |  | inactive: -4.21% [at 9.22 µM]
O=C1[C@H]2[C@H](C=CC[C@H]2C(=O)N2CCN(c3ccccc3)CC2)CCN1Cc1ccc(Cl)c(Cl)c1 | inconclusive: 2.31 µM [activator, partial curve, poor fit] | 
Cc1c(Cl)cccc1NC(=S)N(Cc1ccco1)C(C)c1ccccn1 (configuration not stated) |  | inactive: -10.9%
O=C(NCCN1C(=O)S/C(=C\c2cccc(Cl)c2Cl)C1=O)C1=COCCO1 | inconclusive: 20.6 µM [activator, partial curve, poor fit] | 
COc1ccccc1Nc1nc(-c2sc(NC(=O)CC(C)C)nc2C)cs1 | inconclusive: 11.6 µM [activator, partial curve, poor fit] | 
COc1ccc(-c2coc3cc(OC(C)=O)ccc3c2=S)cc1 | inconclusive: 29.1 µM [activator, single point] | 
Cc1ccc(C(C)C)c(OCC(O)CN2CC(C)OC(C)C2)c1 (configuration not stated) | inconclusive: 35.5 µM [activator, partial curve, poor fit] | 
COC(=O)/C(=C\Nc1ccc(Cl)c2ccccc12)c1ncc(C(F)(F)F)cc1Cl | inconclusive: 0.082 µM [activator, full curve, poor fit] | 

Three compounds drawn at random from those above, as already listed:
SMILES | Potency | re-replication activation
Cc1ccc(NC(=S)/N=C(\N)Nc2nc(C)c3cc(C)c(C)cc3n2)cc1C | inconclusive: 13 µM [activator, partial curve, poor fit] | 
Cn1c(SCc2ccccc2)nnc1-c1ccncc1 | inconclusive: 16.4 µM [activator, single point] | 
Cc1ccc(C(C)C)c(OCC(O)CN2CC(C)OC(C)C2)c1 (configuration not stated) | inconclusive: 35.5 µM [activator, partial curve, poor fit] | 

The list continues:

SMILES | Potency | re-replication activation
COc1cc2c(ccc3cc(OC)c(OC)c(O)c32)cc1O | inconclusive: 6.51 µM [activator, single point] | 
CC(=O)Oc1ccc(/C(C)=N\N2CCN(Cc3ccc(Cl)cc3)CC2)cc1 |  | inconclusive: 29.9% [activator]
Cc1cccc(C(=O)Nc2ccc(S(=O)(=O)N3CCOCC3)cc2C)c1 |  | inactive: -2.96%
Cc1ccc(S(=O)(=O)Nc2c(C)nc3nc[nH]n3c2=O)c(C)c1 |  | inactive: -5.15%
Cc1ccc(CN2CCC(NC(=O)c3ccccc3)CC2)cc1 |  | inactive: 2.92%
O=C(NCc1cccnc1)c1ccc(S(=O)(=O)N2CCCCC2)cc1 |  | inactive: -3.25%
C/C=C(/C)C(=O)OC1CC(C)(C)C[C@H]2C3=CC[C@@H]4[C@@]5(C)CCC(O[C@@H]6O[C@@H](C(=O)O)[C@@H](O)C(O[C@@H]7OC[C@H](O)[C@@H](O)[C@@H]7O[C@@H]7OC(CO)C(O)[C@@H](O)[C@@H]7O)C6O[C@@H]6OC(CO)C(O)C(O)C6O)[C@@](C)(CO)[C@@H]5CC[C@]4(C)[C@]3(C)CC(O)[C@@]12CO (some centres not stated) | inconclusive: 29.1 µM [activator, single point] | 
CCN1CC=C2C(C#N)=C(N)C(C#N)(C#N)C(CCc3ccccc3)C2C1 (configuration not stated) |  | inactive: 10.1%
COC(=O)c1nc(N)sc1-c1ccc(Cl)cc1 | inconclusive: 32.6 µM [activator, single point] | 
CC1(c2ccc(OC(F)F)cc2)NC(=O)N(CC(=O)c2ccc3c(c2)OCO3)C1=O (configuration not stated) | inconclusive: 14.6 µM [activator, single point] | 
Cc1ccc(CNC(=O)[C@H](C)[C@H]2C[C@]2(C)[C@H](NC(=O)OCc2ccccc2)c2ccccc2)o1 | inconclusive: 4.61 µM [activator, single point] | 
CN1CC[C@H](CN2c3ccccc3Sc3ccccc32)C1 | inconclusive: 33.5 µM [activator, single point] | 
CNc1nc2c(N)ncnc2n1[C@H]1O[C@@H](CO)[C@H](O)[C@@H]1O | inconclusive: 18.4 µM [activator, single point] | 
Fc1ccc(-c2cc(C(F)(F)C(F)F)[nH]n2)cc1 |  | inactive: 18.6%
CC1(C)CC(=O)C2=C(C1)NC(Nc1nc3ccccc3o1)=NC2c1ccccn1 (configuration not stated) | inconclusive: 25.9 µM [activator, single point] | 
NS(=O)(=O)c1ccc(CCNC(=O)c2ccc(C(=O)c3ccccc3)cc2)cc1 |  | inactive: -12.4%
Cc1cc(NC2C3CC4CC(C3)CC2C4)n2ncnc2n1 (configuration not stated) | inconclusive: 29.1 µM [activator, single point] | 
CN1C2CCC1CC(OC(c1ccccc1)c1ccccc1)C2 (configuration not stated) | inconclusive: 29.1 µM [activator, single point] | 
O=S(=O)(Nc1nc2ccccc2nc1-[n+]1cccc(N=C([O-])c2ccc(Cl)cc2)c1)c1ccccc1 | inconclusive: 29.1 µM [activator, single point] | 
COc1ccc(OCCCC(=O)ON=C(N)c2ccccc2Cl)cc1 | inconclusive: 29.1 µM [activator, single point] | 
Cc1ccc(NC(=S)NCC(C)CSc2ccc(Cl)cc2)cc1 (configuration not stated) | inconclusive: 9.2 µM [activator, partial curve] | 

SMILES | Potency | re-replication activation
CC1CCCC(NC(=O)Cc2ccc(Br)cc2)C1C (configuration not stated) |  | inactive: 3.53%
COc1cccc([C@@H]2Oc3ccc(OC)cc3C(=O)[C@H]2OC(=O)N[C@H](C)C2CCCCC2)c1 | inconclusive: 32.6 µM [activator, partial curve, poor fit] | 
COc1ccc(/C=C/C(=O)OCC(=O)NCc2cccs2)cc1OC | inconclusive: 6.51 µM [activator, single point] | 
CCOc1ccc2c(c1)nc(SCC(=O)c1ccc(Br)s1)n2C | inconclusive: 23.1 µM [activator, single point] | 
COC(=O)N/N=C/c1ccc(-c2cccc(Cl)c2)o1 |  | inactive: 0.583%
O=C(CSc1nnc(-c2ccccc2F)o1)OCc1ccccc1 | inconclusive: 2.91 µM [activator, full curve] | 
CCOc1ccc(-n2c(O)c(/C=N/Nc3nc(C)cc(C)n3)c3ccccc3c2=O)cc1 | inconclusive: 6.51 µM [activator, full curve] | 
O=C(c1ccc(Cl)c(S(=O)(=O)NCc2ccco2)c1)N1CCN(c2ccccc2F)CC1 | inconclusive: 29.1 µM [activator, single point] | 
O=C(CN1CCN(c2ccccc2O)CC1)Nc1cccnc1Cl | inconclusive: 29.1 µM [activator, single point] | 
CCc1cc(=O)oc2cc(C)cc(OC(C)C(=O)NCc3cccnc3)c12 (configuration not stated) |  | inactive: -6.58%
CCCCCCCCN1[C@@H](CC(C)=O)c2cc(C(F)(F)F)ccc2S1(=O)=O | inconclusive: 1.84 µM [activator, partial curve] | 
Cc1cc2nc(CN(C)Cc3c(C(=O)N(C)C)nc4ccc(Cl)cn34)[nH]c2cc1C | inconclusive: 0.366 µM [activator, full curve, poor fit] | 
Cc1ccc(OCc2cc(C(=O)N(C)Cc3nccn3C)no2)cc1C | inconclusive: 2.59 µM [activator, partial curve] | 
CC(=O)c1ccc(NC(=O)NC2CCCc3ccccc32)cc1 (configuration not stated) | inconclusive: 20.6 µM [activator, single point] | 
COc1ccc(NC(=O)/C(=C\c2ccc(OC)c(OC)c2)NC(=O)c2ccco2)cc1 | inconclusive: 4.61 µM [activator, partial curve, poor fit] | 
O=S(=O)(c1cccc(-c2csc(-c3ccccc3)n2)c1)N1CCOCC1 | inconclusive: 16.4 µM [activator, single point] | 
Oc1ccc(Cl)cc1CNC1CCCCC1 |  | inactive: 2.38%
COc1ccc(C(=O)NC(=S)NNC(=O)c2cccc(C)c2)cc1 | inconclusive: 20.6 µM [activator, single point] | 
COc1ccc(C2=NN(C(=O)CSc3nc4ncc(Cl)cc4[nH]3)C(c3ccco3)C2)cc1 (configuration not stated) | inconclusive: 0.794 µM [activator, full curve] | 
